Results reported in the supplement of paper PMC10849652.
The other results are listed elsewhere or left out.

Chains of the proteins cited; added tags and fusions are not shown. Lines headed by an entry give the natural chain unless they say otherwise; changes in a name come on top.
UniProt Q9H5Z1: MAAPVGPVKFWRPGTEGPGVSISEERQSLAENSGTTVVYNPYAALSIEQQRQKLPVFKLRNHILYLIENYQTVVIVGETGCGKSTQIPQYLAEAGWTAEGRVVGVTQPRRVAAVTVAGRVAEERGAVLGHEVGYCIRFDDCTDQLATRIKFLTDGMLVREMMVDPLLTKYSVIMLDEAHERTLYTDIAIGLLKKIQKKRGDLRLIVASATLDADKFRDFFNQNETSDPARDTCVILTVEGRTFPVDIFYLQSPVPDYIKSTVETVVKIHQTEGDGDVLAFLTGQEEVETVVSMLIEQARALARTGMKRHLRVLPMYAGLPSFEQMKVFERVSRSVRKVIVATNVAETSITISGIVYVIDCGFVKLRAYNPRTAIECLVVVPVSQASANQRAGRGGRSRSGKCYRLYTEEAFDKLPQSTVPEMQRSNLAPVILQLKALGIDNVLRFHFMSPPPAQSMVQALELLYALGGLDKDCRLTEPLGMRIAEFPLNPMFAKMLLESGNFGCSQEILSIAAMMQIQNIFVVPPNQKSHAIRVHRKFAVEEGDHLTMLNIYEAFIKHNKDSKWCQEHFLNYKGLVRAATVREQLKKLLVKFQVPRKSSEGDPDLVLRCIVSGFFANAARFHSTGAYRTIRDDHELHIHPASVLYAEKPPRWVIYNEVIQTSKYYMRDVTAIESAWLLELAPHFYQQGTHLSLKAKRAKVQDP
UniProt O00429, whole entry, looked up: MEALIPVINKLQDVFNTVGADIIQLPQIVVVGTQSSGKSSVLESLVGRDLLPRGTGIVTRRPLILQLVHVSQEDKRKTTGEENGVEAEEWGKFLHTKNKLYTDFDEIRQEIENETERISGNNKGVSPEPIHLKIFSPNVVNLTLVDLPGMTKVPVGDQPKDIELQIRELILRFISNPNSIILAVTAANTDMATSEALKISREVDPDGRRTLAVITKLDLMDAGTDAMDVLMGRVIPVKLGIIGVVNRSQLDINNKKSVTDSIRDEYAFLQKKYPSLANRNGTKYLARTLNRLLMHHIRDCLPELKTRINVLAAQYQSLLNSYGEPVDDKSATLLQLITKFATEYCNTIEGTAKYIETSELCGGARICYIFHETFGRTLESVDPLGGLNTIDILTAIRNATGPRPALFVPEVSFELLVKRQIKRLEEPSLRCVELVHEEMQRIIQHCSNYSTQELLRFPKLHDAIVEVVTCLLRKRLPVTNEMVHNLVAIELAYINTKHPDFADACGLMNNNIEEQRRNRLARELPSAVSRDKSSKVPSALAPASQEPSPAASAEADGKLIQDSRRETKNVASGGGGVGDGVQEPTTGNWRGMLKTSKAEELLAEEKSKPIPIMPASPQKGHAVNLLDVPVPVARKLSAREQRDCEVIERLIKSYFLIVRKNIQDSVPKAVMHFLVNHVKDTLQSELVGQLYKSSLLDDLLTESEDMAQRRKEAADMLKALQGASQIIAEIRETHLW
UniProt P11532, whole entry, looked up: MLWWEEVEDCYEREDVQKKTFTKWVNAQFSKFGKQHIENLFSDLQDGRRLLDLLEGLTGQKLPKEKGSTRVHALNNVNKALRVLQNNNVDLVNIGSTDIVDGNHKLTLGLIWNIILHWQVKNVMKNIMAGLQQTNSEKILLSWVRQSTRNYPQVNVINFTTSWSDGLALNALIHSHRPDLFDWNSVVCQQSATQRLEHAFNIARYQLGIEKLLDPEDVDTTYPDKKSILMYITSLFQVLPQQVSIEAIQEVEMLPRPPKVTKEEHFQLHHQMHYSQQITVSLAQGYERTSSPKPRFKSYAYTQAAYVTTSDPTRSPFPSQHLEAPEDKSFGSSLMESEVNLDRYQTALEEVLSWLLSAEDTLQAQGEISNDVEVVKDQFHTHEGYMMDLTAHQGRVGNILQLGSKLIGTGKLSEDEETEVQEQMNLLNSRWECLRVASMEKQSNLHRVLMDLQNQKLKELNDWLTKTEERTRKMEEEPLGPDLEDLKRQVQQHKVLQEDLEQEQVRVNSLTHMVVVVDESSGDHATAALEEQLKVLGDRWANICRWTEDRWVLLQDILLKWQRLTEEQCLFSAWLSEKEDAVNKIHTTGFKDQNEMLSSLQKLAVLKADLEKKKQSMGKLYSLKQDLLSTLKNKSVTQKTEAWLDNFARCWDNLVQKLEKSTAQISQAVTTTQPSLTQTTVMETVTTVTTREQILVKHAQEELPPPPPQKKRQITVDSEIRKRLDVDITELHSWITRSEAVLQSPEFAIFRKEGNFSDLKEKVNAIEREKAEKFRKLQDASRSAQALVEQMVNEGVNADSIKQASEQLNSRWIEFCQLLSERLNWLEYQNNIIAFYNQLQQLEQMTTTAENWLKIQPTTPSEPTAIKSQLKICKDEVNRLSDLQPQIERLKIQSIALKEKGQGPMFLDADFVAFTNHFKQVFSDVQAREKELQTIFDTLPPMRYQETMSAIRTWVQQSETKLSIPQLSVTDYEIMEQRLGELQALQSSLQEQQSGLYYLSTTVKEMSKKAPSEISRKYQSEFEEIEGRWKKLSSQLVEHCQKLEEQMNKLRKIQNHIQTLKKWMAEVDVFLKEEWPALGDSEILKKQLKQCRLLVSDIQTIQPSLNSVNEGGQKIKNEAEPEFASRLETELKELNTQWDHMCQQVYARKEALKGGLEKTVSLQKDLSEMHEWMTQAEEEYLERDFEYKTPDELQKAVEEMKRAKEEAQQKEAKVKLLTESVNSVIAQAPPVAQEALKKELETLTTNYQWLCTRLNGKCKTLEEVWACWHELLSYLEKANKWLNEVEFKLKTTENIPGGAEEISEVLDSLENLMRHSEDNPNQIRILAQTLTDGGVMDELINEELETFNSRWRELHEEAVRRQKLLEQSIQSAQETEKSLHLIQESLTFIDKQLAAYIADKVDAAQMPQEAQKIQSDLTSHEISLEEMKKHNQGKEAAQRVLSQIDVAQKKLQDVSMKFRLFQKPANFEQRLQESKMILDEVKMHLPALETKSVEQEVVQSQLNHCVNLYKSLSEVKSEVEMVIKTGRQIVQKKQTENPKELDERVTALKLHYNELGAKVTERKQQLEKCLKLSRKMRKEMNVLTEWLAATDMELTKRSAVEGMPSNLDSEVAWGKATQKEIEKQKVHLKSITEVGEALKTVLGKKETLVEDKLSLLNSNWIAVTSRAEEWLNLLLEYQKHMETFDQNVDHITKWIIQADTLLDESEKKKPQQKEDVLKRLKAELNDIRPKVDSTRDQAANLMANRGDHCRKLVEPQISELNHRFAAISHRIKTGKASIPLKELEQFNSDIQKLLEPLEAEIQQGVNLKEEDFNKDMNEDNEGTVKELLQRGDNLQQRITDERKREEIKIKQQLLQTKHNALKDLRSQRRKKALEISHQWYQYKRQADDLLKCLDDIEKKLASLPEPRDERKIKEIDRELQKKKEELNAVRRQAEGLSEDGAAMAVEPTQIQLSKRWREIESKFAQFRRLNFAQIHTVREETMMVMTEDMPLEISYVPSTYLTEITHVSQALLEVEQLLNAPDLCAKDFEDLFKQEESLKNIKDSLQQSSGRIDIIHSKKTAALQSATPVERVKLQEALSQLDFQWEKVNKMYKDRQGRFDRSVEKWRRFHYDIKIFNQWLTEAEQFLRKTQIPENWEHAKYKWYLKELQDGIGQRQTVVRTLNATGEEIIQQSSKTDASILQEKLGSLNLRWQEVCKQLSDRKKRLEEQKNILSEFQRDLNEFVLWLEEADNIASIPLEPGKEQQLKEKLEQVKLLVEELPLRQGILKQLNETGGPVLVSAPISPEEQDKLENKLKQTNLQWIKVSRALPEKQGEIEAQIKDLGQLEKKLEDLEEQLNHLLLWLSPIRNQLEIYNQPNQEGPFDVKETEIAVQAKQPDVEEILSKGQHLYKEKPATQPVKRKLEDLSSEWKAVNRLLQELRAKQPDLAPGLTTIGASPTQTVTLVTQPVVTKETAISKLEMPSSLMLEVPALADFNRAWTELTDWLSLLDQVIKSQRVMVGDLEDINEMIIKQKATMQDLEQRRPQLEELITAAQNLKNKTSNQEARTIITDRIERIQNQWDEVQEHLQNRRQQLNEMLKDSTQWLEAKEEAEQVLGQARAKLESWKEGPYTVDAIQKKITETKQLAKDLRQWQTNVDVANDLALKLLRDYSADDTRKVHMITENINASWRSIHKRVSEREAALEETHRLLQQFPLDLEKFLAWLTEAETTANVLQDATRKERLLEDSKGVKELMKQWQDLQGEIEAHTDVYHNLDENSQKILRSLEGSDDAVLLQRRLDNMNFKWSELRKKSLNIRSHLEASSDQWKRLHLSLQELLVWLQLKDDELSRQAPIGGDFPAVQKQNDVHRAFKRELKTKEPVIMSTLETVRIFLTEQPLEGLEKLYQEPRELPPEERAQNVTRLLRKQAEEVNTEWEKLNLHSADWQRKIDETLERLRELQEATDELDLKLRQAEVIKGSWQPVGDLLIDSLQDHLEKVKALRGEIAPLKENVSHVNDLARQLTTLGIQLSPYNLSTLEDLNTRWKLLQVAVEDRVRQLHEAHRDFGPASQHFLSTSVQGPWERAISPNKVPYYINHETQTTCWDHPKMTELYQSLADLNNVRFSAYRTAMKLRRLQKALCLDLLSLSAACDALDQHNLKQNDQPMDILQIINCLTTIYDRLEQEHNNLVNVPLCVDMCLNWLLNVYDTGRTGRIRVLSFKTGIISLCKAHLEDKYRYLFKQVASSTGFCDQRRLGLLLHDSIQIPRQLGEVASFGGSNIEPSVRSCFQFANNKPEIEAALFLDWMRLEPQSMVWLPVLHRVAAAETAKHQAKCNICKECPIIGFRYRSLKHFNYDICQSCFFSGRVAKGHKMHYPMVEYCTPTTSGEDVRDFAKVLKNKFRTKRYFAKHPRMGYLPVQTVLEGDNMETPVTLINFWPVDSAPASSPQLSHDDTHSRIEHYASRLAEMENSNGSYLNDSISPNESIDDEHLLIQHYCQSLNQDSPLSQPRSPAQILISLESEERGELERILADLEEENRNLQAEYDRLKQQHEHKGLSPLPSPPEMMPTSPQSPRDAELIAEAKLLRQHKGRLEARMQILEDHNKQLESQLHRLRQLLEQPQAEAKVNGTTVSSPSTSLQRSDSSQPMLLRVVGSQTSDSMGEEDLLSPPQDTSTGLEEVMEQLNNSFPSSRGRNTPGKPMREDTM
UniProt Q9NVR5: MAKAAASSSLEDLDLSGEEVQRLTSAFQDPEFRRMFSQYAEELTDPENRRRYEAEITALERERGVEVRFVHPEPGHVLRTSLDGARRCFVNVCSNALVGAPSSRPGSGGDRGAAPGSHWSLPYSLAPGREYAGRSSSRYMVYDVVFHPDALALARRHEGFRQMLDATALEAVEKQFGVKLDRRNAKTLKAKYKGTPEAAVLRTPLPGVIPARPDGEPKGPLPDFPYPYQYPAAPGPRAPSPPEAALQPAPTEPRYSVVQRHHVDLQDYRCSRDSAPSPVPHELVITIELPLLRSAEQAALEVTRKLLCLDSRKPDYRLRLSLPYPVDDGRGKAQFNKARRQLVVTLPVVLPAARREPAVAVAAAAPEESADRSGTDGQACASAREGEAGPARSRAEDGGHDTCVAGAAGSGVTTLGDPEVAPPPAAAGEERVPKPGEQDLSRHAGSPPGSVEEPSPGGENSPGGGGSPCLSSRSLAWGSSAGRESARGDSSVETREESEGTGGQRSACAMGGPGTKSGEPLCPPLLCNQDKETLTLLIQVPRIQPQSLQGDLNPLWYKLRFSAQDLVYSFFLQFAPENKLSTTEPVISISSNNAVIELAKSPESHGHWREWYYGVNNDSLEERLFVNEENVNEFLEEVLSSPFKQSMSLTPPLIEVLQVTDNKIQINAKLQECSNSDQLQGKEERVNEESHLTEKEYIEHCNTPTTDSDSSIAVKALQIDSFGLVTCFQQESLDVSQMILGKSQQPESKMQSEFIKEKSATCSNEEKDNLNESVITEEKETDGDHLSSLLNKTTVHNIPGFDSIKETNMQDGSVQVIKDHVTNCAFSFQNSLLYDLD
UniProt Q9BVM2: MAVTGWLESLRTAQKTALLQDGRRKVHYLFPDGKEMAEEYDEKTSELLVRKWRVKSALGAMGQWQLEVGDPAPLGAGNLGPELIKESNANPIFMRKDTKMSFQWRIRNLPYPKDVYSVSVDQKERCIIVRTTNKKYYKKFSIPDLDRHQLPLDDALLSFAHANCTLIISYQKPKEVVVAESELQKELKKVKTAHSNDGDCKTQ
UniProt Q9UDY4: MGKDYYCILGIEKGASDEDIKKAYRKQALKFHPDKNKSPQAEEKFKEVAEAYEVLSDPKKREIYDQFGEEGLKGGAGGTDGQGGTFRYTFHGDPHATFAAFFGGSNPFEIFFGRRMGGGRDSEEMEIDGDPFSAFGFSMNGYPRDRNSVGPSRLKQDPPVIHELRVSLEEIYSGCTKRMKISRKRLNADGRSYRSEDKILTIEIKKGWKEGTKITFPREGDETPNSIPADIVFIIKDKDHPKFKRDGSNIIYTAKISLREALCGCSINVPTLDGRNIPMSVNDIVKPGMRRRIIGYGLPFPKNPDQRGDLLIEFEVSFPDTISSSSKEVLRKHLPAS

Key:
Assay in all cases: log2 fold change, soluble protein after heating vs DMSO (PISA); higher = thermal stabilisation; K562 lysate, 10 uM; active = over 0.2 and 3.5 SD of the protein, either way, in both replicates (recomputed)
[1] = compound: NCC(=O)Nc1ccc(-n2nc(C(F)(F)F)cc2-c2ccc3c(ccc4ccccc43)c2)cc1
In short: (§1)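 The values are log-two fold changes in thermal stability compared with solvent controls and come from duplicates. They were obtained by TMTpro 16plex LC-MS/MS, with channel sums equalised, on the supernatant after 21,000xg for 90 min. That supernatant came from crude K562 extract at 1 mg/mL protein treated with 10 μM compound for 30 min, heated for 3 min across 48°C-58°C, pooled and brought to 0.5% NP-40 at 4°C.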

[2] = compound: O=C(CCCCCCC(=O)Nc1ccccc1)NO [vorinostat]
In short: as §1

[3] = compound: O=C(O)c1ccc2c(c1)nc(Nc1cccc(Cl)c1)c1ccncc12 [silmitasertib]
In short: as §1

[4] = compound: O=C1NC(=O)C(c2cnc3ccccn23)=C1c1cn2c3c(cc(F)cc13)CN(C(=O)N1CCCCC1)CC2
In short: as §1

[5] = compound: c1cn2cc(-c3ccc4cn[nH]c4c3)nc(Nc3ccc(N4CCOCC4)cc3)c2n1 [entospletinib]
In short: as §1

In the case of DHCR7 (UniProt Q9UBM7), the log2 fold change [1] is reported as inactive: -0.098, the log2 fold change [2] is reported as inactive: -0.022 and the log2 fold change [3] is reported as inactive: 0.03. For the same target, the log2 fold change [4] was inactive: -0.004 and the log2 fold change [5] was inactive: 0.078.
With DHX35 (UniProt Q9H5Z1) the log2 fold change [1] was inactive: 0.058, the log2 fold change [2] was inactive: -0.313 and the log2 fold change [3] was inactive: 0.059. The log2 fold change [4] was inactive: 0.174 and the log2 fold change [5] was inactive: -0.026.
With DNAAF5 (UniProt Q86Y56) the log2 fold change [1] was inactive: 0.029, the log2 fold change [2] was active: -0.313 and the log2 fold change [3] was inactive: 0.129. The log2 fold change [4] was inactive: 0.02 and the log2 fold change [5] was inactive: -0.012.
For DIEXF (UniProt Q68CQ4), the log2 fold change [1] was inactive: -0.035, the log2 fold change [2] was inactive: -0.28 and the log2 fold change [3] was inactive: 0.045. The log2 fold change [4] was inactive: 0.053 and the log2 fold change [5] was inactive: -0.006.
In the case of DNM1L isoform 6 (UniProt O00429), the log2 fold change [1] is reported as inactive: 0.018, the log2 fold change [2] is reported as inactive: -0.048 and the log2 fold change [3] is reported as inactive: 0.019. The log2 fold change [4] was inactive: 0.002 and the log2 fold change [5] was inactive: 0.015.
With DMD (UniProt P11532) the log2 fold change [1] was inactive: -0.025, the log2 fold change [2] was inactive: 0.014 and the log2 fold change [3] was inactive: -0.017. For the same target, the log2 fold change [4] was inactive: 0.002 and the log2 fold change [5] was inactive: -0.003.
DNAJB14 (UniProt Q8TBM8) was tested, and the log2 fold change [1] was inactive: -0.017, the log2 fold change [2] was inactive: 0.039 and the log2 fold change [3] was inactive: -0.015. The log2 fold change [4] was inactive: 0.048 and the log2 fold change [5] was inactive: 0.035.
With DOCK2 (UniProt Q92608) the log2 fold change [1] was inactive: 0.032, the log2 fold change [2] was inactive: -0.11 and the log2 fold change [3] was inactive: 0.208. For the same target, the log2 fold change [4] was inactive: -0.037 and the log2 fold change [5] was inactive: -0.037.
DNAAF2 (UniProt Q9NVR5) was tested, and the log2 fold change [1] was inactive: 0.071, the log2 fold change [2] was inactive: 0.005 and the log2 fold change [3] was inactive: 0.045. The log2 fold change [4] was inactive: -0.005 and the log2 fold change [5] was inactive: -0.029.
For DNTTIP2 (UniProt Q5QJE6), the log2 fold change [1] was inactive: 0.093, the log2 fold change [2] was inactive: 0.031 and the log2 fold change [3] was inactive: -0.051. The log2 fold change [4] was inactive: 0 and the log2 fold change [5] was inactive: 0.016.
In the case of DPCD (UniProt Q9BVM2), the log2 fold change [1] is reported as inactive: -0.103, the log2 fold change [2] is reported as inactive: -0.081 and the log2 fold change [3] is reported as inactive: -0.081. For the same target, the log2 fold change [4] was inactive: -0.085 and the log2 fold change [5] was inactive: -0.015.
In the case of DNAJB4 (UniProt Q9UDY4), the log2 fold change [1] is reported as inactive: -0.02, the log2 fold change [2] is reported as inactive: -0.042 and the log2 fold change [3] is reported as inactive: -0.002. For the same target, the log2 fold change [4] was inactive: -0.071 and the log2 fold change [5] was inactive: -0.032.
For DOCK10 (UniProt Q96BY6), the log2 fold change [1] was inactive: 0, the log2 fold change [2] was inactive: -0.07 and the log2 fold change [3] was inactive: 0.143. For the same target, the log2 fold change [4] was inactive: -0.064 and the log2 fold change [5] was inactive: 0.023.
With DHRS7B (UniProt Q6IAN0) the log2 fold change [1] was inactive: -0.047, the log2 fold change [2] was inactive: -0.031 and the log2 fold change [3] was inactive: -0.005. The log2 fold change [4] was inactive: -0.041 and the log2 fold change [5] was inactive: 0.023.
For DGKH (UniProt Q86XP1), the log2 fold change [1] was inactive: 0.299, the log2 fold change [2] was inactive: -0.116 and the log2 fold change [3] was inactive: -0.022. The log2 fold change [4] was inactive: -0.064 and the log2 fold change [5] was inactive: 0.077.
